According to PubChem BioAssay AID1794845 (National Center for Advancing Translational Sciences (NCATS), 2023):
Fewer than 10 of roughly 6,900 compounds were called active. The call rests on the fitted dose curve; in most records, active means well fitted curve in the direction sought with a large enough effect; inconclusive means small, poorly fitted or top-dose-only effect, or another doubt; inactive means no such curve, though single readings can be large or run the other way. The list shows a part of the results.

Chains of the proteins cited; added tags and fusions are not shown. Lines headed by an entry give the natural chain unless they say otherwise; changes in a name come on top.
UniProt C7C422: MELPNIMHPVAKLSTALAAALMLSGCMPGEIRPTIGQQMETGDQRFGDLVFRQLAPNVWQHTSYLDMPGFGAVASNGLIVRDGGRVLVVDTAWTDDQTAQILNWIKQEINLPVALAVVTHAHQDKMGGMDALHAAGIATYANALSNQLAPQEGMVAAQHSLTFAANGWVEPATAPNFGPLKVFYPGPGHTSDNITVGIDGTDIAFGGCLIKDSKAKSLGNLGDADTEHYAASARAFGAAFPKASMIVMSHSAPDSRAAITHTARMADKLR

What follows are molecules tested against Metallo-beta-lactamase type 2 (Klebsiella pneumoniae) (UniProt C7C422) (assay: qHTS to identify inhibitors of the New Delhi Metallo-beta-lactamase (NDM): primary screen against the NCATS Gemini Collection). Details: NDM-1 enzyme, meropenem hydrolysis, absorbance 300 nm; at 38.4 µM (top of the series) unless noted.
Outline: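 Meropenem hydrolysis (50 uM final) by 2 nM NDM-1 read as 300 nm absorbance after 30 min, following >30 min compound–enzyme preincubation in HEPES pH 7.0 with 1 uM ZnSO4 and 0.01% Tween20.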
Further: % of control where 0% means no effect.

Activity % (negative = inhibition), inactive:
CC(C)c1ccccc1NC(=O)N1CCOC(C(F)(F)F)C1 (stereo not given) -1.86%, CCCN1CC2(CCN(C)CC2)CC1C(=O)N(C)Cc1nnc(C)o1 (stereo not given) 11.7%, O=c1cc(N2CCOCC2)oc2c(-c3ccccc3O)nccc12 23.4% [at 57.5 µM], C=CCn1nc(C)c(CN2CC[C@H](N3CCN(C)CC3)[C@H](CCC(=O)O)C2)c1C 10.5%, COc1nc2nc(CCc3ccccc3)n(C)c2cc1-c1ccnn1C -2.8% [at 57.5 µM], CNC(=O)[C@@H]1CN(C(=O)Cc2c[nH]c3ccccc23)C[C@H]1COC 17.3%, O=C(c1ccc(F)c(Cl)c1)N1C[C@@H](CO)[C@H](c2ccccn2)C1 -2.92%, CN(c1ncccc1CNC(=O)C1CCOCC1)C1CCCCC1 -0.675%, COCCc1noc([C@@H]2CC(F)(F)CN2C(=O)c2ccoc2)n1 10.5%, COCc1ncc(C)n1C1CCN(C(=O)Cc2cccc(F)c2)CC1 -1.37%, CC1=C[C@@H](CNC(=O)CCCC(=O)O)[C@H](C(C)C)C[C@H]1Cc1nc2ccccc2n1C 1.42% [at 57.5 µM], COc1ccc(-c2ccc3nnc(CNC(=O)CCc4ccccc4)n3n2)cc1 6.6%, FC(F)(F)c1ccc(CN2CCCC3(CC(Cc4ccccc4)=NO3)C2)cc1 (stereo not given) 1.91%, Cc1nc(CC(=O)NCc2cccnc2N2CCOCC2)cs1 -0.451%, COCC(=O)N[C@@H]1CN(Cc2ccc(C)s2)CC[C@@H]1c1n[nH]c(C)n1 1.72%, OCc1nc(C2CCNC2)no1 (stereo not given) -2.89%, Cc1ccc(C(=O)NCCn2c(C)cnc2C)s1 0.905%, C#CCNC(=O)[C@@H]1CCCN1[C@@H](C(=O)NC)c1ccccc1 9.17% [at 57.5 µM], COc1ccc(CCNC(=O)CC(c2cccc(F)c2)c2cn(C)c3ccccc23)cc1OC (stereo not given) -0.357%, COc1cc(C(=O)NCCCn2ccnn2)ccc1OC1CCN(C(C)=O)CC1 7.31%, O=S(=O)(c1ccc2c(c1)CCC2)N1CCC(Cc2nc(-c3ccncc3)n[nH]2)C1 (stereo not given) -3.42%, Cn1cc(CN2CCN(c3cnccn3)CC2)c(-c2ccc(C3CCCCC3)cc2)n1 14.1%, CCCCc1cn(CC2CCN(C(=O)c3ccsc3)CC2)nn1 2.84%, Cc1ccc(CN2C(=O)NC3(CCN(C(=O)c4cccc(Cl)c4)C3)C2=O)cc1 (stereo not given) 5.78%, O=C(C1CC1)N1CCN2C(=O)N(C3CCCCC3)C[C@H]2C1 10.7% [at 77.1 µM], O=C(NCc1ccnc2[nH]ccc12)c1cncc(Br)c1 59.2% [at 57.5 µM], COc1ccc(CC(=O)Nc2ccc3c(c2)CN(CCOc2ccccc2)C(=O)C(C)O3)cc1 (stereo not given) 2.19%, O=Cc1ccc(-c2cc(C(F)(F)F)ccc2Cl)cc1 -16% [at 57.5 µM], CCn1ccnc1CN(C)C(=O)c1cc(COc2ccccc2F)[nH]n1 -14.9%, COc1ccnc(CN2C(=O)NC(CCc3ccccc3)(C3CCNCC3)C2=O)c1 (stereo not given) 1.39%, CC(C)(O)C#Cc1ccc(-c2nccn2-c2cccc(-n3cncn3)c2)cc1 74.2%, CC(=O)NCC(=O)N1CCC(c2cc(-c3ccc(F)cc3)n[nH]2)CC1 17.2%, Cn1c([C@H]2CCN(Cc3ccc4c(c3)OCO4)C2)nc2ccccc21 16.2% [at 57.5 µM], O=C(NC1CCCCC1)N1CCCCCC1c1nc(-c2ccncc2)no1 (stereo not given) -2.94%, CN(C)c1ccc(-c2nnc([C@H]3CCN(Cc4ccccn4)C3)o2)cc1 99.6% [at 57.5 µM], Cc1occc1C(=O)N1CCC(CCC(=O)N2CCN(c3ccccc3)CC2)CC1 56.9%, O=C(NCCc1ccc(Cl)cc1)c1cc(-c2cccs2)c2cccn2n1 1.3%, O=C(CCc1nc(-c2cccnn2)no1)NC1CCCCCCC1 9.7%, Cc1ccc2c(C(=O)NCc3ccc(Cl)cc3)cnn2c1 8.71% [at 57.5 µM], O=C(Nc1ccc2c(c1)OCCO2)N1CCCC(CN2CCOCC2)CC1 (stereo not given) -2.22%, CCCn1c(C)cnc1CC1CCN(C(=O)NCc2ccc(OC)cc2)C1 (stereo not given) -7.23%, O=C(O)CCC(=O)N1Cc2ccccc2CC2(CCCN(CC3CCOCC3)C2)C1 (stereo not given) 6.2%, COCCN1CC2(CCOC2)N(C2CCN(C(=O)c3ccc(OC)cc3)CC2)C1=O (stereo not given) -0.219%, CN(C)C(=O)c1nc2sccn2c1-c1ccc(C(F)(F)F)cc1 15.4%, Cc1nn(C)c(C)c1CCC(=O)N1CCC(C2CCN(S(C)(=O)=O)CC2)C1 (stereo not given) 8.27%, COc1ccc(CC(=O)N2CCc3nc(-c4cccnc4)[nH]c3C2)cc1 13.2%, C[C@@]12CO[C@@H](CNS(C)(=O)=O)O[C@@H]1CC[C@]1(C)[C@@H]2CC[C@@H](O)[C@H]1CC(=O)NCc1ccco1 0.912%, O=C(N[C@H](c1ccccn1)C1CC(O)C1)c1ccc2c(c1)ncn2CCO (stereo not given in full) 24.4%, Cc1ccccc1N(C)C1CN(Cc2ccc(C#N)cc2)C1 1.83% [at 57.5 µM], CCc1cn(C[C@H](NC(=O)COC)C(=O)O)c(=O)[nH]c1=O 14.7% [at 57.5 µM], C=CCOc1cccc(-c2nc(C(=O)NCc3cccc(F)c3)cs2)c1 16.5%, O=C(NCC(F)F)C1CCCN1C(=O)c1cccc(-c2ccccn2)c1 (stereo not given) 2.91%, Cc1cnc(-c2ccncc2)n1C1CCN(S(=O)(=O)c2cccc(F)c2)CC1 3.46%, Cc1noc(C)c1[S+](=O)([O-])N1CC(Oc2ccc(F)cc2F)C1 19.9%, O=C(CC1CCN(C(=O)Cc2ccccc2F)C1)NC1CC1 (stereo not given) 0.139%, CC(C)NC(=O)c1ccccc1OCC1CCCN(Cc2cccnc2)C1 (stereo not given) -3.05%, COc1ccc(S(=O)(=O)N2C[C@@H]3C[C@H](C2)c2ccc(NC(=O)c4ccc(C#N)cc4)c(=O)n2C3)cc1 -1.04%, COc1ccc(CCNc2ncnc3c2CN(C2CCC2)C(=O)N(C)C3)cc1 -0.66%, Cn1cccc1C(=O)NC1CCN(C(=O)N2CC3CC(C2)[C@H]2CCCC(=O)N2C3)CC1 (stereo not given in full) 28.9%, CS(=O)(=O)NC1CCN(c2cc(C3CC(N)C3)nc(N)n2)CC1 (stereo not given) 0.85%, CCCCN1C(=O)c2ccccc2C(C(=O)Nc2nncs2)C12CCCC2 (stereo not given) -4.02%, Cc1noc(-c2cccn3c(CNC(=O)c4ccccc4C)nnc23)n1 14.2%, COc1ccccc1CCC(=O)N1CC(F)(F)C[C@H]1c1nnc(C)o1 -7.89%, O=C(Nc1ccc(F)cc1)N[C@H]1[C@H](O)[C@@H](N2CCCC2)[C@@H]2OC[C@H]1O2 -15.5% [at 57.5 µM], Cc1ccc(C(=O)N2CCCC(n3c(C)cnc3C3CCOCC3)C2)s1 (stereo not given) 7.31%, Cc1nc(CN2C(=O)OC3(CCN(C(=O)Cc4ccc(O)cc4)CC3)C2(C)c2ccccc2)cs1 (stereo not given) -0.943%, CCNC(=O)N1CC[C@H]2CC(=O)N(Cc3cccnc3)CC[C@H]2C1 -3.04% [at 57.5 µM], Cn1cnc(C(=O)N2CC(F)(F)C[C@H]2c2nc(C3CC3)no2)c1 1.12%, CNC(=O)c1cc(-c2cnc(OC)nc2)cc2c1OCCN2Cc1cccnc1 -3.27% [at 57.5 µM], CCCN(CC1CCOC1)C(=O)Nc1ccc(Cl)cc1 (stereo not given) 20.5%, COCCn1c(C(=O)OC)c(NC(=O)CC(C)C)c2cc(NC(C)CCn3cccn3)cnc21 (stereo not given) -2.25%, O=C(c1cccs1)N1CCC(N(C(=O)NCCc2ccccc2)C2CCOCC2)CC1 2.28%, CC(=O)N1CCC(N2C[C@@H]3C[C@H](C2)c2ccc(-c4ccccc4CN(C)C)c(=O)n2C3)CC1 10.5%, O=C1[C@H]2CN(Cc3ccncc3)C[C@H]2C(=O)N1Cc1ccc2c(c1)OCO2 1.15%, O=C(O)c1ccc2c(c1)N(C(=O)c1ccc(F)cc1)CC2 2.63%, C[C@H]1[C@@H]2[C@@H](O)C([C@H](C)C(=O)NCc3cccnc3)CC[C@@]2(C)CC[C@@H]1NC(=O)c1ccccn1 (stereo not given in full) 0.381%, C[C@@H]1CN(C[C@@H]2CN(C(=O)c3ccsc3)C[C@@H]2CO)C[C@H](C)O1 -3.8%, CC(C)(C)CC(=O)N[C@H]1CO[C@H]2[C@@H]1OC[C@H]2OCC(N)=O 15.4% [at 57.5 µM], Cc1cn2nnc(C(=O)NC3CCC(C)CC3)c2c(=O)[nH]1 (stereo not given) 20.7%, CCCN1CCC2(CCN([S+](=O)([O-])c3cccs3)CC2)Oc2ccccc21 -2.6%, C=CCc1ccccc1OCCN(C)Cc1ccccc1C(=O)O -0.36%, CNC(=O)c1cc2cc(-c3c(C)noc3C)nc(-c3cccc(OC)c3OC)c2o1 23.7% [at 57.5 µM], O=C(NCCNC(=O)c1cccc(-c2ccsc2)c1)NC1CCCC1 -3.26%, O=C1CCC2(CNC(=O)c3cccnc3)CCCC=C2N1 (stereo not given) 2.98%, Cc1ccccc1C(=O)N1CCCN(c2ccc3nnc(-c4ccccc4)n3n2)CC1 2.8%
